Literature values in patent US5556857A, “Disturbance-of-consciousness improving agent” (priority 1991, dated 1996).
For at least one compound, name, drawing or mass did not settle the structure.

Settings: literature (Brain and Nerve, 39:983-990, 1987); cited from earlier work

CC(=O)OCC[N+](C)(C)C [acetylcholine]
effect on impaired consciousness: effective in improving disturbances of consciousness at low non-toxic doses
